Our source for the binding values is paper PMC12660564.

The chains behind the UniProt entries cited, without tags or fusion partners. Where a name states a change or a piece, a line headed by the entry shows the natural chain unless it says otherwise.
UniProt P46734: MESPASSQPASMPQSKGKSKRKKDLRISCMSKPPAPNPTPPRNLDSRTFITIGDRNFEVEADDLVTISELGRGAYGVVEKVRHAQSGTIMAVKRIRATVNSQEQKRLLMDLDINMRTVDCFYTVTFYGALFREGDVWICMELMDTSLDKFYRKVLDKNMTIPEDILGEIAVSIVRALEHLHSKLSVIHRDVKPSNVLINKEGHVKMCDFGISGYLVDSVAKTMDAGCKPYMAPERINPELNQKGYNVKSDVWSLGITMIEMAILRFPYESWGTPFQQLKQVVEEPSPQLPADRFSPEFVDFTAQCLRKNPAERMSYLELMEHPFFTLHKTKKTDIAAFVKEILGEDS

Results are given in words; binding and its absence hold for the method and conditions named. Binding seen in cells or lysates may run through a third protein. Binding can be weak; no strength is given. Tags and fused reporters may be left off the sequences shown.

The experiment concerns the target MYC-MKK3-EE (constitutively active, phospho-mimetic mutant) (UniProt P46734). The experiment can be described thus: co-IP; HEK293T cells co-transfected with FLAG- and MYC-tagged constructs; lysates (50 mM Tris-HCl pH 7.4, 150 mM NaCl, 1 mM EDTA, 1% NP-40) immunoprecipitated with anti-FLAG beads or anti-MYC antibody/beads overnight at 4 °C, Western blot. A general note: A western blot detects proteins with antibodies after separation by electrophoresis.

B1: FLAG-USP13 (ubiquitin-specific protease 13, wild type) (enzyme, UniProt Q92995 1-863)
chain: MQRRGALFGMPGGSGGRKMAAGDIGELLVPHMPTIRVPRSGDRVYKNECAFSYDSPNSEGGLYVCMNTFLAFGREHVERHFRKTGQSVYMHLKRHVREKVRGASGGALPKRRNSKIFLDLDTDDDLNSDDYEYEDEAKLVIFPDHYEIALPNIEELPALVTIACDAVLSSKSPYRKQDPDTWENELPVSKYANNLTQLDNGVRIPPSGWKCARCDLRENLWLNLTDGSVLCGKWFFDSSGGNGHALEHYRDMGYPLAVKLGTITPDGADVYSFQEEEPVLDPHLAKHLAHFGIDMLHMHGTENGLQDNDIKLRVSEWEVIQESGTKLKPMYGPGYTGLKNLGNSCYLSSVMQAIFSIPEFQRAYVGNLPRIFDYSPLDPTQDFNTQMTKLGHGLLSGQYSKPPVKSELIEQVMKEEHKPQQNGISPRMFKAFVSKSHPEFSSNRQQDAQEFFLHLVNLVERNRIGSENPSDVFRFLVEERIQCCQTRKVRYTERVDYLMQLPVAMEAATNKDELIAYELTRREAEANRRPLPELVRAKIPFSACLQAFSEPENVDDFWSSALQAKSAGVKTSRFASFPEYLVVQIKKFTFGLDWVPKKFDVSIDMPDLLDINHLRARGLQPGEEELPDISPPIVIPDDSKDRLMNQLIDPSDIDESSVMQLAEMGFPLEACRKAVYFTGNMGAEVAFNWIIVHMEEPDFAEPLTMPGYGGAASAGASVFGASGLDNQPPEEIVAIITSMGFQRNQAIQALRATNNNLERALDWIFSHPEFEEDSDFVIEMENNANANIISEAKPEGPRVKDGSGTYELFAFISHMGTSTMSGHYICHIKKEGRWVIYNDHKVCASERPPKDLGYMYFYRRIPS
Consider B1, for which the binding entry is recorded as “binds”.
